Screen size: about 300,000 compounds; about 3,700 (1.2%) were called active. Inconclusive means that the source gave no clear call. Such entries were picked first, then a sample of the others. Calls come from the whole dose curve; tested in HEK293 cells. Potencies beside an inconclusive call are fits to weak or partial responses and may not hold up.
Assay: qHTS for Inhibitors of binding or entry into cells for Lassa Virus; note: nearly all actives have a fitted effect of over 50% in size
Details: Lassa virus pseudotype entry inhibition, cell reporter; series mostly up to 37.9 µM
Potency is the fitted concentration of half-maximal effect.

Q: With `CCN(CC)c1ccc(/C=c2\sc3nnc(-c4ccccc4Cl)n3c2=O)cc1` as the compound, how does the Potency read?
A: inconclusive: 35.5 µM [inhibitor, single point]

Q: With `COc1ccc(C(=O)NN(c2ccccc2)c2ccccc2)cc1` as the compound, how does the Potency read?
A: inconclusive: 0.411 µM [activator, full curve, poor fit]

Q: Which Potency does the source give for `CN(C)CC1C2CCC(C2)C1O` (stereo unspecified) here?
A: inactive

Q: With `COc1cc(OC)cc(C(=O)NC(=S)NNC(=O)Cc2cccs2)c1` as the compound, how does the Potency read?
A: inactive

Q: Which Potency does the source give for `Cc1cc(C)nc(SCc2cn3cc(Cl)ccc3n2)n1` here?
A: inconclusive: 0.562 µM [activator, full curve, poor fit]

Q: For `N/C(=N\OC(=O)c1cc(Cl)ccc1Cl)c1ccccn1`, which Potency is on record?
A: active: 6.51 µM

Q: For `O=C(COC(=O)/C=C/c1ccc(Cl)cc1)NC(=O)NCc1ccccc1`, which Potency is on record?
A: inconclusive: 35.5 µM [inhibitor, single point]

Q: Which Potency does the source give for `Cc1ccc(CNC(=O)C(=O)NCC(c2cccs2)S(=O)(=O)c2ccccc2)cc1` (stereo unspecified) here?
A: inconclusive: 8.91 µM [inhibitor, partial curve, poor fit]

Q: For `O=C(Nc1ccc(N2CCCCC2)cc1)c1ccc2c(c1)OCCO2`, which Potency is on record?
A: inconclusive: 2.91 µM [activator, partial curve, poor fit]

Q: For `O=C(Cc1ccc2c(c1)CCCC2)Nc1ccccc1Br`, which Potency is on record?
A: inconclusive: 20.6 µM [inhibitor, single point]

Q: With `Cc1ccc(S(=O)(=O)c2c(C)nn(C(C)(C)C)c2OC(=O)c2ccc(Br)o2)cc1` as the compound, how does the Potency read?
A: active: 11.2 µM

Q: Which Potency does the source give for `O=C(Nc1nc(-c2ccc(F)cc2)cs1)c1cccnc1` here?
A: inconclusive: 17.8 µM [inhibitor, partial curve, poor fit]

Q: Which Potency does the source give for `CC(C)C(=O)N1CCN(c2ccc([N+](=O)[O-])c(NC(C)c3ccccc3)c2)CC1` (stereo unspecified) here?
A: inconclusive: 22.4 µM [inhibitor, single point]

Q: For `Cc1cc(C)n(C(C[N+](=O)[O-])c2ccc(Cl)cc2)n1` (stereo unspecified), which Potency is on record?
A: inactive

Q: Which Potency does the source give for `CCOCc1c(C(=O)Nc2cc(OCC)c(N3CCOCC3)cc2OCC)oc2ccccc12` here?
A: inactive

Q: With `CC1=NN(c2cccc(C(=O)O)c2)C(=O)/C1=C\C=C/c1ccccc1` as the compound, how does the Potency read?
A: inconclusive: 25.1 µM [inhibitor, single point]

Q: With `CC(=O)c1c(C)[nH]c(C(=O)OCC(=O)N2CCCC2=O)c1C` as the compound, how does the Potency read?
A: inactive

Q: For `COc1cc(/C=N/NC(N)=O)cc([N+](=O)[O-])c1O`, which Potency is on record?
A: inconclusive: 0.631 µM [activator, full curve, poor fit]

Q: With `COCCN1CCN(C(=O)C2CCC(=O)N(Cc3ccccc3OC)C2)CC1` (stereo unspecified) as the compound, how does the Potency read?
A: inactive

Q: With `CCNC(=S)N/N=C/c1ccc(C(=O)O)cc1` as the compound, how does the Potency read?
A: inconclusive: 0.1 µM [inhibitor, full curve, poor fit]

Q: With `Cc1ccc(-n2ncc3c(N4CCN(Cc5ccccc5)CC4)ncnc32)cc1C` as the compound, how does the Potency read?
A: inconclusive: 7.08 µM [inhibitor, partial curve]

Q: For `COc1cc2c(cc1OC)CN(C(=O)c1cccc(S(=O)(=O)N3CCc4ccccc43)c1)CC2`, which Potency is on record?
A: active: 3.98 µM

Q: With `Cc1ccccc1OC1C(=O)N(Cc2ccc3c(c2)OCO3)C1c1sccc1C` (stereo unspecified) as the compound, how does the Potency read?
A: inconclusive: 14.6 µM [inhibitor, single point]

Q: For `Cc1sc2ncn(CCC(=O)O)c(=O)c2c1C`, which Potency is on record?
A: inactive

Q: With `COc1ccccc1NC(=O)C1CCCN(C(=O)NCc2ccccc2)C1` (stereo unspecified) as the compound, how does the Potency read?
A: inconclusive: 35.5 µM [inhibitor, single point]

Q: For `O=C(CS(=O)(=O)c1ccc(Cl)cc1)Nc1nc2ccc(Br)cc2s1`, which Potency is on record?
A: inactive

Q: With `CCOc1ccc(C2=C(C(C)=O)Sc3nnc(C)n3N2C(C)=O)cc1` as the compound, how does the Potency read?
A: inconclusive: 31.6 µM [inhibitor, single point]

Q: Which Potency does the source give for `O=c1c2ccccc2nnn1CSc1ccc2ccccc2n1` here?
A: inactive

Q: With `O=C1CNC(=S)N1c1nc(-c2ccccc2)cs1` as the compound, how does the Potency read?
A: inactive

Q: For `COc1ccc(CCNC(=O)c2cc(-c3ccccc3)on2)cc1OC`, which Potency is on record?
A: inconclusive: 1.83 µM [inhibitor, full curve, poor fit]

Q: With `CC(=O)Nc1ccc(S(=O)(=O)N(C)CC(=O)OCC(=O)N(C)c2ccccc2)cc1` as the compound, how does the Potency read?
A: inactive

Q: Which Potency does the source give for `CCCOc1ccc2cc(-c3ccccn3)c(=O)oc2c1` here?
A: active: 2.82 µM

Q: With `Cc1nc(Cl)sc1C(=O)O` as the compound, how does the Potency read?
A: inconclusive: 1.16 µM [inhibitor, single point]

Q: With `O=C(OCCN1CCOCC1)c1ccccc1` as the compound, how does the Potency read?
A: inconclusive: 1.26 µM [inhibitor, partial curve, poor fit]

Q: Which Potency does the source give for `Cn1ccnc1SCc1cn2ccccc2n1` here?
A: inconclusive: 6.31 µM [activator, single point]

Q: For `CC(C)(C)c1ccc(/C=N/Nc2ccc(C(=O)O)cc2)cc1`, which Potency is on record?
A: active: 2 µM

Q: For `COc1cccc(C(=O)NN/C(C)=C/C(=O)C(F)(F)C(F)(F)C(F)(F)F)c1`, which Potency is on record?
A: inconclusive: 1.26 µM [inhibitor, partial curve, poor fit]

Q: For `O=C(Nc1nc(-c2ccc3c(c2)OCCO3)cs1)c1ccc(S(=O)(=O)N2CCCCC2)cc1`, which Potency is on record?
A: inconclusive: 3.26 µM [inhibitor, full curve]

Q: With `CCOC(=O)CNC(=O)C12CC3CC(C1)CC(c1ccc(C)cc1)(C3)C2` as the compound, how does the Potency read?
A: inconclusive: 1.26 µM [inhibitor, single point]

Q: Which Potency does the source give for `Cc1cc(F)ccc1S(=O)(=O)N1CCC2(CC1)OCCN2S(=O)(=O)c1cccs1` here?
A: inconclusive: 35.5 µM [inhibitor, single point]

Q: For `Nc1ncc(Br)cc1S(=O)(=O)N1CCCCCC1`, which Potency is on record?
A: inactive

Q: With `Cc1ccc(NC(=O)N(Cc2c[nH]c3ccccc23)C2CCCCCC2)cc1C` as the compound, how does the Potency read?
A: active: 2.51 µM

Q: Which Potency does the source give for `Cc1ccc(C(=O)c2cc([N+](=O)[O-])ccc2N2CCOCC2)cc1C` here?
A: inconclusive: 2.82 µM [inhibitor, partial curve]

Q: Which Potency does the source give for `CCOC(=O)C1=C(C)Nc2nc(SC)nn2C1c1ccc(C(=O)OC)cc1` (stereo unspecified) here?
A: inconclusive: 11.6 µM [inhibitor, partial curve, poor fit]

Q: With `NC(=NC(=O)c1ccccc1)N1CCN(C(c2ccccc2)c2ccccc2)CC1` as the compound, how does the Potency read?
A: inactive

Q: With `CS(=O)(=O)N(CC(=O)Nc1ccccc1Sc1ccccc1)C1CCCCC1` as the compound, how does the Potency read?
A: inactive

Q: With `O=S(=O)(c1ccc2c(c1)C(=NO)c1cc(S(=O)(=O)N3CCCCC3)ccc1-2)N1CCCCC1` as the compound, how does the Potency read?
A: active: 6.31 µM

Q: For `O=C(CSc1ccccc1)N1CCN(S(=O)(=O)c2ccccc2F)CC1`, which Potency is on record?
A: inconclusive: 10 µM [inhibitor, partial curve, poor fit]

Q: Which Potency does the source give for `CCN=C1SC(C(=O)NCCc2ccccc2)CC(=O)N1CC` (stereo unspecified) here?
A: inconclusive: 6.51 µM [inhibitor, partial curve, poor fit]

Q: For `CCC(=O)OCCn1c(=O)c2cc3c(=O)n(CCOC(=O)CC)c(=O)c3cc2c1=O`, which Potency is on record?
A: inactive

Q: For `CC(=O)Nc1ccc(S(=O)(=O)N(C)c2ccc(O)cc2)cc1`, which Potency is on record?
A: inconclusive: 1.41 µM [activator, partial curve]

Q: With `O=[N+]([O-])c1c(C(Cl)Cl)nn(-c2ccccc2)c1N1CCOCC1` as the compound, how does the Potency read?
A: inconclusive: 28.2 µM [inhibitor, single point]

Q: With `COc1ccc(-c2n(Cc3ccccc3)c3ccccc3[n+]2Cc2ccccc2)cc1` as the compound, how does the Potency read?
A: active: 8.2 µM

Q: With `COc1cccc(-c2csc(N3CCN(C(=O)C4CCCCC4)CC3)n2)c1` as the compound, how does the Potency read?
A: inconclusive: 14.1 µM [inhibitor, partial curve, poor fit]

Q: For `O=C(CCc1ccccc1)N/N=C\C1CC=CCC1` (stereo unspecified), which Potency is on record?
A: inconclusive: 6.31 µM [inhibitor, full curve]

Q: For `CC(Sc1nnc(-c2ccccc2)c(-c2ccccc2)n1)C(=O)NCC1CCCO1` (stereo unspecified), which Potency is on record?
A: inconclusive: 2.82 µM [inhibitor, single point]

Q: For `Cc1ccc2c(-c3ccnc(Nc4cccc(C(F)(F)F)c4)n3)c(-c3ccccc3)nn2n1`, which Potency is on record?
A: inconclusive: 14.1 µM [inhibitor, partial curve, poor fit]

Q: Which Potency does the source give for `C/C(Cl)=C/Cn1c(SCc2ccc(Cl)cc2)nc2c1c(=O)[nH]c(=O)n2C` here?
A: inactive

Q: With `CC(=O)N1CCN(c2nc(-c3cccs3)nc3ccccc23)CC1` as the compound, how does the Potency read?
A: inconclusive: 8.91 µM [inhibitor, partial curve, poor fit]

Q: With `CC(=O)N(C)c1ccc(OCC(O)CN(c2ccccc2C)S(=O)(=O)c2ccc(C)cc2)cc1` (stereo unspecified) as the compound, how does the Potency read?
A: inactive

Q: Which Potency does the source give for `CCn1c(-c2cc3c(C(F)(F)F)nn(C)c3s2)n[nH]c1=S` here?
A: inactive

Q: For `CCCC(C(=O)NC1CCCC1)N(CC1CCCO1)C(=O)CNS(=O)(=O)c1ccccc1` (stereo unspecified), which Potency is on record?
A: inconclusive: 35.5 µM [inhibitor, single point]

Q: Which Potency does the source give for `COC1OC2COC(c3ccccc3)OC2C(OC(=O)c2ccccc2)C1OC(=O)c1ccccc1` (stereo unspecified) here?
A: inconclusive: 3.16 µM [inhibitor, single point]

Q: Which Potency does the source give for `Cc1ccc(NC(=O)c2ccc(Cl)c(N3C(=O)C=CC3=O)c2)cc1` here?
A: inactive

Q: With `CN(c1ccc(OCC(=O)Nc2ccccc2C(=O)O)cc1)S(=O)(=O)c1ccc(Cl)cc1` as the compound, how does the Potency read?
A: active: 3.16 µM

Q: For `O=C(CN1CCN(c2ccccn2)CC1)Nc1ccc(OCc2ccccc2)cc1`, which Potency is on record?
A: inconclusive: 22.4 µM [inhibitor, partial curve, poor fit]

Q: With `CCC(C)/C(C)=N/NC(=O)c1cn(-c2ccccc2)nc1-c1ccccc1` (stereo unspecified) as the compound, how does the Potency read?
A: inconclusive: 29.1 µM [inhibitor, single point]

Q: With `O=C(CNC(=S)N(Cc1ccccc1)Cc1ccccc1F)NCCc1ccc(Cl)cc1` as the compound, how does the Potency read?
A: inactive

Q: For `CCOC(=O)c1c(CC(C)C)csc1NC(=O)COC(=O)c1ccc(O)cc1`, which Potency is on record?
A: inconclusive: 10 µM [inhibitor, partial curve]

Q: With `Cc1ccc(C(=O)NNC(=S)NC(=O)c2ccccc2)cc1` as the compound, how does the Potency read?
A: inconclusive: 15.8 µM [inhibitor, partial curve]

Q: With `N=C1C(c2nc3ccccc3[nH]2)=C(O)CN1c1ccccc1` as the compound, how does the Potency read?
A: inconclusive: 35.5 µM [inhibitor, single point]
